Measurements taken from PubChem BioAssay AID623959 (National Center for Advancing Translational Sciences (NCATS), 2012).
Hit rate of the full screen: of about 1,400 compounds, fewer than 10 were called active. About 8% were inconclusive and are not listed. The call rests on the fitted dose curve; in most records, active means well fitted curve in the direction sought with a large enough effect; inconclusive means small, poorly fitted or top-dose-only effect, or another doubt; inactive means no such curve, though single readings can be large or run the other way. The list shows a part of the results.

Amino acid sequences for entries named in this document (tags omitted).
UniProt Q8NER1, whole entry, looked up: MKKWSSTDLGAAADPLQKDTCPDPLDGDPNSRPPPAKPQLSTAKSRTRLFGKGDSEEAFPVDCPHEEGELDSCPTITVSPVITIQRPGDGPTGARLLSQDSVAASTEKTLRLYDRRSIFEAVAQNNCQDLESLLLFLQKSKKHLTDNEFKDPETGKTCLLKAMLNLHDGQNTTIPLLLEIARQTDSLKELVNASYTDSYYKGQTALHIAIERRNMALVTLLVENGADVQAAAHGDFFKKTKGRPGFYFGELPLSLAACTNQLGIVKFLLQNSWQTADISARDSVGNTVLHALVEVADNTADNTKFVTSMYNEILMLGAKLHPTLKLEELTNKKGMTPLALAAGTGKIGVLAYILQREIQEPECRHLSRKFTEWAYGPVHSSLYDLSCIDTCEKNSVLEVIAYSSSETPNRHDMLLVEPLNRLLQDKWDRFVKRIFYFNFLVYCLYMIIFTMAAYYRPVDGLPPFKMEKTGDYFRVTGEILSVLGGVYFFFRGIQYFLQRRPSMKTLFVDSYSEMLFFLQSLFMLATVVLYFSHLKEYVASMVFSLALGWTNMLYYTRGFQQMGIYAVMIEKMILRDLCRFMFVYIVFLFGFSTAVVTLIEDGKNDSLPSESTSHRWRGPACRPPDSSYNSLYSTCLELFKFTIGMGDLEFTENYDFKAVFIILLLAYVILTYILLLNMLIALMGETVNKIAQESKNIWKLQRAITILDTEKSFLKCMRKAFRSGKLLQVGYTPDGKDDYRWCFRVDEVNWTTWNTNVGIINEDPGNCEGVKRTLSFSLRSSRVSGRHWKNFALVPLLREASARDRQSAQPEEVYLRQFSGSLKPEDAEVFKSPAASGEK

Each compound was assayed against Transient receptor potential cation channel subfamily V member 1 (Homo sapiens) (UniProt Q8NER1) (assay: qHTS Assay for Compounds that Act as Potentiators of the Vanilloid Receptor 1: Hit Validation). Settings: TRPV1-expressing cells, Fluo-8 calcium influx, capsaicin EC20; series mostly up to 42.1 µM; activity change, positive = potentiation: at the top concentration.
Outline: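 TRPV1 cells (2000/well, overnight 35.5 °C) loaded with Fluo-8 calcium dye 40–90 min at room temperature. FDSS fluorescence (ex 480/em 520 nm) read 3 min after compound, then 2 min after capsaicin at EC20.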
Further: % of control where 0% means no effect.

Activity change, positive = potentiation, inactive:
COc1ccc(CC(=O)NCCCc2ccccc2)cc1OC -38.4%
Cc1ccc(C(=O)c2ccccc2C(=O)Nc2ccccc2)cc1 -3.77%
CC(C)(C)c1ccc(NC(=O)N2CCCN(c3ccc([N+](=O)[O-])cn3)CC2)cc1 -37.3%
CCCNC(=O)C1CCN(S(=O)(=O)c2c(C)noc2/C=C\c2ccc(OC)cc2)CC1 6.07%
O=C(CCc1nc(-c2ccccc2F)no1)NC1CCN(Cc2ccccc2)CC1 -5.89%
Cc1nc2c(cnn2-c2ccccc2Cl)c(=O)n1-c1ccc(N2CCC(C)CC2)cc1 -10.6%
Cc1ccc(N2CCN(C(=O)N3CCCC3)CC2)cc1C -36.1%
O=C(Nc1ccc2c3c(cccc13)CC2)c1ccc(Br)o1 -35.9%
Cc1nnc(SCC(=O)NCCOc2ccc(Cl)cc2)n1-c1ccccc1 -6.48%
CC(=O)CC(C)(C)S(=O)(=O)c1ccc(NC(C)=O)cc1 -0.365%
CCOc1ccccc1CNc1nc2ccccc2n1C -0.0311%
CCc1ccc2[nH]c(=O)c(CN(CCO)C(=O)NCc3ccccc3)cc2c1 1.77%
CC(C)CCSc1nc(N2CCOCC2)c2c(c1C#N)CC(C)(C)OC2 -39%
N#Cc1nc(-c2ccc(OCc3ccccc3Cl)cc2)oc1NCCCn1ccnc1 -1.63%
N#CC1(P(=O)(c2ccccc2)c2ccccc2)CCCC1 0.0868%
O=C(CCN1C(=O)/C(=C/c2cccs2)SC1=S)NC1=NCCS1 -0.528%
CCCCN(C(=O)C1CC1)C1CCS(=O)(=O)C1 (stereo unspecified) -3.11%
CC(=O)Nc1ccc(NC(=O)c2cccc(-c3cc4ccccc4oc3=O)c2)cc1 -9.76%
COCCn1c(SCc2cc(=O)n3ccsc3n2)nnc1-c1ccncc1 0.941%
O=C(NCc1ccccn1)C(=O)NCc1ccccn1 -0.978%
CCOc1ccc(-n2c(=O)c3c4c(sc3n(CC(=O)NCC3CCCO3)c2=O)CCC4)cc1 (stereo unspecified) -0.738%
NNC(=O)C(Cc1c[nH]c2ccccc12)NC(=O)c1ccccc1 (stereo unspecified) -5.67%
CC(=O)c1cccc(NC(=O)c2ccc(OC3CSC3)cc2)c1 -39.1%
Cc1cc(=O)[nH]c(SCC(=O)Nc2nc3ccccc3s2)n1 -8.26%
Cc1noc(/C=C/N(C)C)c1S(=O)(=O)N1CCCC(C(=O)NCc2ccco2)C1 (stereo unspecified) -5.74%
CC(C(=O)N=c1sc2ccccc2n1C)N1C(=O)C2CC=CCC2C1=O (stereo unspecified) -3.07%
Cc1nn(-c2ccccc2)nc1C(=O)Nc1nnc(C(F)(F)F)s1 -7.1%
Cc1ccc(CC(=O)NNC(=O)c2ccncc2)cc1C -8.36%
O=C(Nc1ccc(Br)cc1)c1cc2ccccn2n1 -38.6%
CCOC(=O)c1[nH]c(C)c(C(=O)c2ccc(C)cc2)c1C -38.9%
CSc1ccc(/C=C/C(=O)Nc2ccccc2)cc1 15.6%
CCOC(=O)c1ccc(N/C=C/C(=O)c2ccc(OC)cc2)cc1 -0.0875%
O=C(Nc1ccccc1)c1csc(-c2ccccc2)n1 -38.7%
CCC(C)(C)c1ccc(OCC(=O)Nc2ccncc2)cc1 -38.3%
CCOC(=O)C(Cc1ccccc1)C(=O)Nc1cccc(C)c1 (stereo unspecified) -5.17%
COc1c(O)ccc(/C=N\NC(=O)c2ccc3c(c2)OCO3)c1[N+](=O)[O-] -5.8%
Cc1cc(C)n(-c2nnc(N3CCN(c4ccccc4)CC3)nn2)n1 -4.84%
CC(C)c1ccc(NC(=O)c2cccc(Br)c2)cc1 -25.8%
Nc1[nH]ncc1-c1ccc(F)cc1 -1.83%
O=C(NCCc1ccc(O)c(O)c1)C1COc2ccccc2O1 (stereo unspecified) -38%
CC(C)(C)NC(=O)CN(C(=O)CN1C(=O)C(=O)c2ccccc21)C(C)(C)C -6.12%
CC(=O)NCCCc1nc2ccccc2n1Cc1cc(C)ccc1C -38.3%
O=C(CC(=O)N/N=C/c1ccc(C(=O)O)cc1)NCCc1ccccc1 -10.6%
CC(C)Cc1nnc(NC(=O)Cc2cccs2)s1 -3.2%
CC(C)SC1=NC(C)(C)C=C(/C=C/c2ccc(Cl)cc2Cl)N1 -6.62%
COc1ccc(OC)c(NC(=O)CCC(=O)Oc2ccc(C)cc2)c1 -1.54%
CCCCCCSc1ccc([C@@H]2[C@H]3C(=O)N(C)C(=O)[C@H]3[C@]3(C(=O)OC)CCCCN23)cc1 0.0026%
CCCC12CN3CC(C)(CN(C1)C31CCCCC1)C2=O -5%
Cc1ccc(C2=NN(C)c3nc4ccccc4n3C2)cc1 -39%
O=C(CSc1nc(O)c(C2CCCCC2)c(=O)[nH]1)NCC1CCCO1 (stereo unspecified) 2.23%
CC(=O)Nc1ccc(S(=O)(=O)NCCC(=O)OCc2nnc(-c3ccccc3)o2)cc1 6.57%
CC1CCC(C(=O)NNC(=O)c2cc(-c3ccco3)[nH]n2)CC1 (stereo unspecified) -8.63%
COc1ccc(N(CC(=O)NCCSc2ccccn2)S(=O)(=O)c2ccccc2)cc1Cl 3.24%
O=C(/C=C\c1ccccc1OC(=O)c1ccccc1F)c1cc2ccccc2o1 -33.8%
COC(=O)CCCC1=CC2=CC(=O)C(C)(OC(=O)c3cccs3)C(=O)C2=CN1CCCCO (stereo unspecified) -2.94%
Cc1csc(N(C)C(=O)CSc2nnc(COc3ccccc3C)o2)n1 10.6%
Nc1ccc2c(c1)OCCOCCOCCOCCOCCO2 -38.3%
Cc1cc(C)nc(Nc2ccccc2F)n1 -5.49%
COc1ccc(CCN(C)C(=O)CNC(=O)Cc2cccc3ccccc23)cc1OC 4.22%
COc1ccc(Br)cc1/C=N/n1c(-c2ccccc2)n[nH]c1=S 5.38%
COC(=O)c1cccc(C23CC4(C2)[C@H](CN(Cc2ccc(-c5ccccc5)cc2)[C@@H]4c2ccccc2)C3c2ccccc2)c1 (stereo partly specified) 4.78%
COc1ccc2nc(NC(=O)c3ccc(Br)s3)sc2c1 -38.7%
CCN1CCN(C(=O)c2cc3cc4cc(OC)ccc4nc3s2)CC1 -2.74%
CCCOc1ccc(/C=C/C(=O)N2CCOCC2)cc1 -38.9%
Cc1ccc(NC(=S)Nc2cccc3cnccc23)cc1C -6.89%
CCn1c(CC(=O)Nc2ccc(Cl)c(Cl)c2)nnc1SCc1ccc(C)cc1 0.598%
CC(C)(C)c1ccc(/C=C/C(=O)N2CCCCC2)cc1 -38.6%
CCCCC(=O)Nc1ccc(C(=O)Nc2ccc(S(=O)(=O)N3CCCC3)cc2)cc1 -8.84%
CCCCC1=CC2=CC(=O)C(C)(OC(=O)CC)C(=O)C2=CN1c1ccccc1 (stereo unspecified) 0.364%
CC(C)(C)N=C1NN=C(c2ccc(S(=O)(=O)N3CCCCC3)cc2)CS1 10.5%
CC1CCCCN1C(=O)COC(=O)c1ccc(=O)n(Cc2ccccc2)n1 (stereo unspecified) 4.62%

Molecules listed so far that contain a nitro group on carbon:
Activity change, positive = potentiation, inactive:
CC(C)(C)c1ccc(NC(=O)N2CCCN(c3ccc([N+](=O)[O-])cn3)CC2)cc1 -37.3%
COc1c(O)ccc(/C=N\NC(=O)c2ccc3c(c2)OCO3)c1[N+](=O)[O-] -5.8%

Looked up by structure from above:
Activity change, positive = potentiation, inactive:
CC1CCCCN1C(=O)COC(=O)c1ccc(=O)n(Cc2ccccc2)n1 (stereo unspecified) 4.62%
O=C(CC(=O)N/N=C/c1ccc(C(=O)O)cc1)NCCc1ccccc1 -10.6%
